# Data from PubChem BioAssay AID2685 (National Center for Advancing Translational Sciences (NCATS), 2010).
# The whole screen tested about 320,000 compounds, of which about 2,100 (0.66%) were called active. This list was built around the results that the source calls inconclusive (neither active nor inactive); the mix of calls is not that of the screen. The call rests on the fitted dose curve; in most records, active means well fitted inhibition curve with a large enough effect in the signal ratio, with a control signal flat (not every such curve was filed as active); inconclusive means small, poorly fitted or top-dose-only effect, or effect the other way, or a change in a side signal; inactive means flat fitted curve, though single readings scatter; the % refers to the signal ratio. A potency beside an inconclusive call is a rough fit, not a confirmed value.
# Assay: qHTS Assay for Lipid Storage Modulators in Drosophila S3 Cells
# Settings: BODIPY lipid droplet fluorescence, 18-24 h, cells fed with added oleic acid; lipid storage change, negative = inhibition: at 46.1 µM (top of the series) unless noted
# In short: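 Drosophila S3 cells got compounds at several concentrations plus oleic acid (400 uM solution). Laser-scanning cytometry with 488 nm excitation read lipid droplets at 500-530 nm and cells at 575-640 nm. Percent activity was relative to 20 uM Triacsin C.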
# On the % scale 0 is the no-effect control and ±100 the full control effect; potency means the concentration at half of the fitted maximal effect.
SMILES,"lipid storage change, negative = inhibition",Potency,outcome
CCOc1ccc(NC(=O)COC(=O)CC2CCCCC2)cc1,inconclusive: 1.6%,–,–
CCCCc1ccc(/C=C2\C(=O)ON=C2c2ccccc2)s1,inconclusive: -23.8%,–,–
COC(c1ccccc1)c1nnc(CCC(=O)N(C)Cc2cccc(-n3cccn3)c2)o1 (stereo unspecified),–,"inconclusive: 0.0231 µM [falling, full curve, poor fit]",–
COc1ccc(C(=O)OCC(=O)Nc2ccc(Cl)cn2)cc1,inconclusive: 1.88%,–,–
O=C(O)c1ccc(N=Nc2c(O)ccc3ncccc23)cc1,–,"inconclusive: 0.92 µM [falling, partial curve, poor fit]",–
COc1ccc(C(C)(C)C)cc1NC(=O)c1ccc[n+]([O-])c1,inconclusive: 21.3%,–,–
CCc1cc(=O)oc2cc(OCC(=O)N3CC[C@@]4(O)CCCC[C@H]4C3)ccc12,–,"inconclusive: 29.1 µM [falling, single point]",–
COc1cc2c(cc1OC)CC(C(=O)NCc1ccccc1)NC2 (stereo unspecified),inconclusive: 5.93%,–,–
CCn1c(C)nnc1SCC(=O)Nc1ccc2c(c1)OCCO2,inconclusive: -4.01%,–,–
CC1CC(=O)N(C)c2cc([N+](=O)[O-])ccc2N1 (stereo unspecified),–,"inconclusive: 6.51 µM [falling, single point]",–
COc1cccc(C(=O)N(Cc2nc(-c3ccc(C)cc3)no2)C(C)C)c1,–,"inconclusive: 6.51 µM [activator, partial curve]",–
O=C(NC(CO)C(O)c1ccc([N+](=O)[O-])cc1)C(Cl)Cl (stereo unspecified),inconclusive: -22.1%,–,–
Cc1cc(-c2ccccc2)[nH]c(=O)c1S(=O)(=O)c1ccc(Cl)cc1,–,"inconclusive: 25.9 µM [falling, partial curve, poor fit]",–
N#Cc1cc([N+](=O)[O-])ccc1NCCN1CCOCC1,–,"inconclusive: 29.1 µM [activator, single point]",–
Cc1sc2ncnc(OCC(=O)c3ccc(S(=O)(=O)N4CCCC4)cc3)c2c1C,–,"inconclusive: 13 µM [activator, partial curve]",–
COc1cc(F)ccc1S(=O)(=O)N1CCN(Cc2ccccc2)CC1,inconclusive: 27.5%,–,–
CCn1nnnc1SCC(=O)Nc1nnc(C(C)C)s1,–,"inconclusive: 2.31 µM [falling, partial curve]",–
O=C1/C(=C/c2ccc(C(=O)O)cc2)CCC/C1=C\c1ccc(C(=O)O)cc1,–,"inconclusive: 29.1 µM [falling, partial curve, poor fit]",–
O=C(COC(=O)/C=C/c1ccc([N+](=O)[O-])cc1)NC(c1ccccc1)c1ccccc1,–,"inconclusive: 6.51 µM [rising, partial curve]",–
CCOC(=O)N1CCC(NC(=O)C2CCN(C(=O)N3CC(C)Oc4ccccc43)CC2)CC1 (stereo unspecified),inconclusive: -1.45%,–,–
Cc1cn(C2CCC(CO)O2)c(=O)[nH]c1=O (stereo unspecified),–,–,inactive [at 46.1 µM]
O=C(COC(=O)Cc1n[nH]c(=O)c2ccccc12)NNC(=O)c1ccc(Cl)cc1,–,"inconclusive: 0.58 µM [activator, full curve]",–
Cc1ccc(-c2nc3ncccc3o2)cc1NC(=O)c1cc2ccccc2o1,inconclusive: 16.9%,–,–
COC(=O)c1ccccc1NC(=O)C(C)c1ccc([N+](=O)[O-])cc1 (stereo unspecified),inconclusive: 21.9%,–,–
O=C(Cc1coc2ccc3ccccc3c12)NC1CCCc2ccccc21 (stereo unspecified),–,"inconclusive: 18.4 µM [falling, partial curve]",–
O=C1CN(C(=O)COC(=O)/C=C/c2ccc(S(=O)(=O)N3CCOCC3)cc2)c2ccccc2N1,inconclusive: -36.9% [at 9.22 µM],–,–

# Quoted at random: three records from the list
SMILES,"lipid storage change, negative = inhibition",Potency,outcome
COc1cc(F)ccc1S(=O)(=O)N1CCN(Cc2ccccc2)CC1,inconclusive: 27.5%,–,–
COC(=O)c1ccccc1NC(=O)C(C)c1ccc([N+](=O)[O-])cc1 (stereo unspecified),inconclusive: 21.9%,–,–
O=C1/C(=C/c2ccc(C(=O)O)cc2)CCC/C1=C\c1ccc(C(=O)O)cc1,–,"inconclusive: 29.1 µM [falling, partial curve, poor fit]",–

# (cont.)

SMILES,"lipid storage change, negative = inhibition",Potency,outcome
CCCNC(=O)N1CCC(c2ccc3c(c2)OCO3)CC1,inconclusive: -7.45%,–,–
CC1(C)C2CCC1(CS(=O)(=O)Nc1ccc(S(=O)(=O)N3CCCCC3)cc1)C(=O)C2 (stereo unspecified),–,"inconclusive: 0.82 µM [falling, full curve, poor fit]",–
COc1ccccc1CN1CC(C(=O)NCc2cccc(C)n2)CCC1=O (stereo unspecified),inconclusive: 15.5%,–,–
COc1ccccc1NC(=O)CN(c1ccc(C23CC4CC(CC(C4)C2)C3)cc1)S(C)(=O)=O,inconclusive: 6.16%,–,–
COc1ccc(N2C(=O)[C@@H]3Cc4ccccc4CN3C2=O)cc1,inactive: 13.6%,–,–
COc1cc(=O)n(C)c2c(O)cccc12,inconclusive: -7.52%,–,–
CCOc1ccc(NC(=O)Cn2nnc(-c3ccccc3NC(=O)CC)n2)cc1,–,"inconclusive: 29.1 µM [activator, single point]",–
O=C(CSc1nnc(-c2ccco2)o1)Nc1cccc([N+](=O)[O-])c1,–,"inconclusive: 0.0891 µM [falling, full curve, poor fit]",–
Cc1cccc(C)c1NC(=O)COn1nnc2ccc(C(F)(F)F)cc21,inconclusive: 13.3%,–,–
Cc1c(OCc2ccccc2)c(=O)ccn1Cc1ccc(F)cc1,inconclusive: -1.93%,–,–
Cc1ccc(S(=O)(=O)N2CCCCC2)cc1NS(=O)(=O)c1ccc(Cl)c(C(=O)O)c1,inconclusive,–,–
CC1CN(C(=O)CCC(=O)NCc2ccccn2)c2ccccc2O1 (stereo unspecified),inconclusive: -20.4%,–,–
O=C(NCc1ccccn1)C(=O)N/N=C/c1ccccc1O,inconclusive: -16.4%,–,–
O=S(=O)(NCc1ccc2c(c1)OCO2)c1cnc[nH]1,inconclusive: -0.494%,–,–
Cc1cccc(C(=O)Nc2cccc(C(=O)N/N=C/c3ccncc3)c2)c1,inconclusive: 27.6%,–,–
COc1ccccc1-c1nnn(C/C(N)=N/O)n1,inconclusive: -23.3%,–,–
COC(=O)C1=C(C)Nc2ccc(C)cc2S1,–,"inconclusive: 2.06 µM [rising, full curve, poor fit]",–
CCOc1ccc(C(=O)NC2CCN(C(=O)N3CCCC3)CC2)cc1,–,"inconclusive: 7.31 µM [falling, partial curve]",–
CCN(CC)C(=O)c1[nH]cnc1C(=O)Nc1ccc(OC)cc1,inconclusive: 18.5%,–,–
COc1cccc(CNC(=O)CCS(=O)(=O)c2ccc3c(c2)CC(C)N3C(=O)C2CC2)c1 (stereo unspecified),inconclusive: 23.8%,–,–
CC1CCCCC1NC(=O)c1cc2ccccc2o1 (stereo unspecified),–,"inconclusive: 14.6 µM [activator, partial curve]",–
CN(C)C(=O)CN1CCN(Cc2nc(CC3CC3)no2)CC1,–,"inconclusive: 3.26 µM [falling, full curve, poor fit]",–
Cc1ccc(-n2nc3c(=O)n(C(C)C(=O)NCc4ccc(Cl)cc4)nc(C)c3c2C)cc1 (stereo unspecified),–,"inconclusive: 1.84 µM [activator, partial curve]",–
CC(=O)c1ccc(OC(=O)N2CCOCC2)cc1,inconclusive: 6.4%,–,–
CN(C)Cc1c(O)ccc2c3c(c(=O)oc12)CCCCC3,inconclusive: -5.44%,–,–
Cc1[nH]c(C(=O)O)c(C)c1C(=O)OC(C)C,inconclusive: -11.5%,–,–

SMILES,"lipid storage change, negative = inhibition",Potency,outcome
CCOc1ccc2nc(NC(=O)Cn3c(C)csc3=O)sc2c1,inconclusive,–,–
C=CCn1c(SCC(=O)NNC(=O)Nc2cccc(Cl)c2)nnc1-c1ccccc1,inconclusive: 5.52%,–,–
Cc1cnc(C(=O)OCC(=O)NC2CCCCCCC2)cn1,inconclusive: -10.5%,–,–
COC(=O)CSc1nc(C)cc(N2CCOCC2)n1,inconclusive: -4.1%,–,–
CC1(C(=O)NC2CCCC2)CCC(=O)N1Cc1ccc2c(c1)OCO2 (stereo unspecified),inconclusive: 19.6%,–,–
O=C(Nc1cccnc1)c1ccc(Cl)c([N+](=O)[O-])c1,inconclusive: 4.22%,–,–
CCCCNC(=O)c1cc(-c2ccc(OC)cc2)on1,–,"inconclusive: 2.31 µM [activator, partial curve, poor fit]",–
Clc1ccc(Cn2ncc3c(NCCN4CCOCC4)ncnc32)cc1,–,"inconclusive: 32.6 µM [activator, single point]",–
CCOc1ccccc1/C=N/NC(=O)CSc1n[nH]c(=O)[nH]c1=O,inconclusive: -22.5% [at 9.22 µM],–,–
O=C(O)c1ccc(COc2ccc(Cl)cc2)o1,–,active: 25.9 µM,–
O=C(NCCNC(=O)c1ccc(Br)o1)c1cccnc1,inconclusive: -9.43%,–,–
O=C(c1ccc(=O)[nH]n1)N1CCN(S(=O)(=O)c2ccc(C(F)(F)F)cc2)CC1,inconclusive: 12.4%,–,–
CC(=O)n1cc([C@@H]2C=C(C(=O)NCc3ccccc3)O[C@H](OCc3ccc(CO)cc3)C2)c2ccccc21,inconclusive: -15.2%,–,–
Cc1ccccc1-c1nc(SCc2ccccn2)c2c(=O)n(C)c(=O)n(C)c2n1,inconclusive: 8.24%,–,–
O=S(=O)(NCC(c1ccco1)N1CCN(c2ccccc2)CC1)c1ccc(F)cc1 (stereo unspecified),inactive: 8.16%,–,–
COC(=O)C1CCN(C(=O)/C(C)=C\c2ccccc2)CC1,–,"inconclusive: 3.66 µM [falling, partial curve, poor fit]",–
CN(C)S(=O)(=O)c1ccc(C(=O)Nc2ccccc2F)cc1,inconclusive: -99%,–,–
O=[N+]([O-])c1ccc(C=Nc2ccc(Cl)cc2Cl)s1,inconclusive: -77.7%,–,–
COc1ccc(C)cc1S(=O)(=O)NCC(c1ccc2c(c1)OCO2)N1CCOCC1 (stereo unspecified),inconclusive: 33.1%,–,–
CC(C)(C)NCC(O)(c1ccc(Cl)cc1)c1ccc(Cl)cc1,inconclusive: -4.33%,–,–
O=C(Cn1nc(-c2ccc3c(c2)OCCO3)ccc1=O)Nc1cccc(NC(=O)c2ccccn2)c1,inconclusive: -42.2%,–,–
O=C(Nc1ccc(Cl)cc1)Nc1ccc(N2CCCC2)c(S(=O)(=O)Nc2ccccc2Cl)c1,–,"inconclusive: 29.1 µM [falling, single point]",–
O=C1CCC([N+](=O)[O-])C(c2cccc(Br)c2)N1 (stereo unspecified),inconclusive: 12.6%,–,–
O=c1cc(O)nc(SCc2ccccc2Cl)[nH]1,–,"inconclusive: 0.326 µM [activator, full curve, poor fit]",–
